# In PubChem BioAssay AID2685 (National Center for Advancing Translational Sciences (NCATS), 2010):
# This is one part of the list. Shown are side measurements of this screen, not its main read-out; they come without a call. Most of these compounds were active or inconclusive in the main read-out, so they are no random draw. Potencies come from curve fits of mixed quality, noted in brackets.
# Experiment: qHTS Assay for Lipid Storage Modulators in Drosophila S3 Cells;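 on cell number change: cells counted by Cell Tracker Red CMTPX staining in the red channel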
# Settings: BODIPY lipid droplet fluorescence, 18-24 h; for cell number change: measured here: cell count max response, cells fed with added oleic acid
# Outline: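 Drosophila S3 cells got compounds at several concentrations plus oleic acid (400 uM solution). Laser-scanning cytometry with 488 nm excitation read lipid droplets at 500-530 nm and cells at 575-640 nm. Percent activity was relative to 20 uM Triacsin C.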
# [1] = measured here: cell number channel AC50, cells fed with added oleic acid
# [2] = measured here: lipid fluorescence (Fed channel) AC50, cells fed with added oleic acid
SMILES,cell number change,AC50 [1],AC50 [2]
CO[C@H]1C=CO[C@@]2(C)Oc3c(C)c(O)c4c(O)c(c(C=NN5CCN(C6CCCC6)CC5)c(O)c4c3C2=O)NC(=O)C(C)=CC=C[C@H](C)[C@H](O)[C@@H](C)[C@@H](O)[C@@H](C)[C@H](OC(C)=O)[C@@H]1C,-37%,"29.1 µM [falling, single point]","7.31 µM [falling, single point]"
COc1ccc(CNC(=O)Nc2cccc3ccccc23)cc1,-2.92%,,"1.46 µM [rising, partial curve, poor fit]"
Cc1ccc(-c2cccc(CN3CCN(C4CCN(C(C)C)CC4)C(CCO)C3)c2)o1 (centres undefined),-7.76%,,"1.03 µM [falling, full curve]"
COc1cccc(CN2CCCCC2C(=O)O)c1 (centres undefined),,"0.326 µM [falling, full curve]","4.61 µM [falling, partial curve, poor fit]"
CCCCN1C(=O)C(=O)N(CC(=O)c2ccc[nH]2)C1=O,11.1%,,"1.03 µM [falling, partial curve]"
CSCCC(NC(=O)CCC(=O)OCC(=O)[C@@]1(O)CCC2[C@@H]3CCC4=CC(=O)C=C[C@]4(C)C3[C@@H](O)C[C@@]21C)C(=O)O (some centres undefined),-16.3%,,
O=C(c1ccc(CN2CCOCC2)cc1)N1CCN(c2ccccc2F)CC1,,,"18.4 µM [rising, partial curve]"
Cc1sc2nc(CSC(C)C(=O)Nc3ccccn3)[nH]c(=O)c2c1C (centres undefined),2.32%,,"14.6 µM [falling, single point]"
CCCNC(=S)N(Cc1cc2cc(C)ccc2n2nnnc12)CC(C)(C)CN(C)C,,,"0.58 µM [rising, single point]"
CCOC(=O)Nc1ccc2c(CN3CCN(S(=O)(=O)c4ccc(C(C)C)cc4)CC3)cc(=O)oc2c1,9.92%,,"10.3 µM [rising, partial curve, poor fit]"
CC1CCCCC1NC(=O)COC(=O)Cc1ccc(Br)cc1 (centres undefined),-1.89%,,
CCN(C(=O)C1CCCCC1)c1nnc(-c2cccnc2)s1,0.769%,,
O=C(NCCc1ccc2c(c1)OCO2)C1CCN(S(=O)(=O)c2ccc(Cl)cc2)CC1,16.1%,,"0.82 µM [rising, full curve, poor fit]"
CCn1c(=NC(=O)CS(=O)(=O)c2ccc(F)cc2)sc2cccc(OC)c21,-0.693%,"0.731 µM [rising, full curve, poor fit]",
Cc1nc2ccccc2cc1C(=O)NCc1ccco1,45.3%,"16.4 µM [rising, single point]",
CC(C)(C)NC(=O)c1ccc2nccnc2c1,16.7%,,"18.4 µM [rising, single point]"
NC(=O)CCc1c[nH]c2ccccc12,,"0.103 µM [rising, full curve, poor fit]",
CCC(C)C(NC=C1C(=O)OC(C)(C)OC1=O)C(=O)O (centres undefined),-46.8%,"2.31 µM [falling, full curve]","25.9 µM [falling, partial curve]"
COc1ccc(CNC(=O)COC(=O)CN2C(=O)COc3ccccc32)cc1,65%,"14.6 µM [rising, partial curve]",

SMILES,cell number change,AC50 [1],AC50 [2]
COc1ccc(CCN(C)C(=O)c2c(C)nn(CC(C)C)c2Cl)cc1OC,-1.08%,,"29.1 µM [rising, single point]"
Cc1cccc(C)c1NC(=O)CNc1ncnc2sc(C)c(C)c12,9.26%,,"0.103 µM [rising, full curve, poor fit]"
O=C(NC1CCCCC1)c1cc(S(=O)(=O)N2CCCCC2)ccc1N1CCOCC1,2.59%,,"0.00461 µM [falling, full curve, poor fit]"
CC1(C)CC(=O)c2c(Cc3ccccc3)noc2C1,25.5%,"0.366 µM [rising, full curve]",
CCOc1ccc(-c2nnc(N3CCOCC3)c3ccccc23)cc1,21.1%,"6.51 µM [rising, single point]",
O=C(CSc1cccc2cccnc12)N/N=C/c1cccc(O)c1,,,"20.6 µM [rising, single point]"
CC1Cc2ccccc2N1C1=CC(=O)CC(C)(C)C1 (centres undefined),-6.69%,,
Cc1cc(OCC(=O)OCC(=O)N(C)C2CCS(=O)(=O)C2)ccc1Cl (centres undefined),10.8%,,
CCN(C(=O)CSc1nncn1-c1ccccc1)c1c(N)n(Cc2ccccc2)c(=O)[nH]c1=O,,,"0.82 µM [rising, full curve, poor fit]"
Cc1cc(NC(=O)CCC(=O)N(CC(=O)NC2CCCC2)c2cccc(F)c2)no1,-10%,,"6.51 µM [rising, partial curve]"
O=c1[nH]cc(COCC(F)CCl)c(=O)[nH]1 (centres undefined),0.106%,,"0.164 µM [rising, full curve, poor fit]"
Cc1cc(C)cc(NC(=O)Nc2ccc3c(c2)N(C)C(=O)CS3)c1,14.4%,,
CCn1cc(C(=O)NCCCN(CC(C)C)CC(C)C)c(=O)c2cc(S(=O)(=O)N(C)C3CCCCC3)ccc21,5.6%,,"29.1 µM [rising, single point]"
CCOC(=O)c1cccc(NS(=O)(=O)c2cnc[nH]2)c1,-1.28%,,"29.1 µM [falling, single point]"
CCN(c1ccccc1)S(=O)(=O)c1ccc(Cl)c(NC(=O)COC(=O)c2ccc[nH]c2=O)c1,22.6%,"3.66 µM [rising, full curve, poor fit]","0.291 µM [rising, full curve, poor fit]"
CC(=O)Nc1ccc(NC(=O)C2CC(=O)N=C(N)S2)cc1 (centres undefined),-6.73%,,"0.103 µM [rising, full curve, poor fit]"
C=CCn1cc(/C=N/Nc2nc3ccccc3[nH]2)c2ccccc21,-42.1%,"20.6 µM [falling, single point]","18.4 µM [falling, single point]"
Cc1ccc(C)c(N(C(=O)c2csnn2)C(C(=O)NC2CCCC2)c2cccnc2)c1 (centres undefined),13.3%,,"0.259 µM [rising, partial curve, poor fit]"
COc1ccc(NC(=O)CN(c2ccccc2F)S(=O)(=O)c2ccc(C)cc2)c(OC)c1,49.2%,"18.4 µM [rising, single point]",

# 2 entries drawn at random from those above, as already listed:
SMILES,cell number change,AC50 [1],AC50 [2]
Cc1cc(C)cc(NC(=O)Nc2ccc3c(c2)N(C)C(=O)CS3)c1,14.4%,,
CCOc1ccc(-c2nnc(N3CCOCC3)c3ccccc23)cc1,21.1%,"6.51 µM [rising, single point]",
